Data on two substances can be found in publication PMC11475408, “All‐Inorganic Polyoxometalates Act as Superchaotropic Membrane Carriers” (Advanced Materials (Deerfield Beach, Fla.), 2023).

Holding throughout (assay type): binding
One series has as its system heptaarginine. Description: ITC, POM into heptaarginine. The following applies: 10 mM Tris; for n (ITC stoichiometry), heptaarginine: pH 7.4, 298.15 K, one-set-of-sites, duplicates, 5% error; for T∆S, heptaarginine / ∆H, heptaarginine: ITC, pH 7.4, error 0.5. The protocol:
(§1) All experiments were performed with a VP‐ITC MicroCalorimeter from MicroCal, Int,. at atmospheric pressure and 298.15 K. Solutions were degassed and thermostatic prior to the titration experiments in a ThermoVac accessory. A constant volume of POM ([PVW11]^4‒ or [SiMoW11]^4‒) (10 µL per injection) was injected into the oligopeptide solution (heptaArg, protamine, polyArg or heptaLys) in 10 mM Tris, pH 7.4 to determine the apparent binding affinity of [PVW11]^4‒ and [SiMoW11]^4‒ with the oligopeptides. Dilution heats were determined by titration of the POM into buffer and subtracted from the reaction heat. The neat reaction heat was fitted with Origin 7.0 software by using the “one‐set‐of‐sites” model to obtain the complex stability constant (K a) and molar reaction enthalpy (∆H°). The free energy (∆G°) and entropy changes (∆S°) were obtained according to the relation: ∆G° = −RTlnK a = ∆H°−T∆S°.
(§2) 4. Supramolecular interactions
(§3) Figure S10. Microcalorimetric titrations in 10 mM Tris, pH 7.4: Raw ITC data (top) for the sequential injections of POM solution into an oligoarginine solution, and apparent reaction heats (bottom) obtained from the integration of the calorimetric traces. […]
(§4) values and ± 0.5 kcal mol‒1 for ΔH and TΔS (duplicate measurements). Note that none of these interactions lead to any precipitation or aggregates, confirmed by the absence of any detectable signal by DLS. […]
(§5) Figure S11. Microcalorimetric titrations in 10 mM Tris, pH 7.4: Raw ITC data (top) for the sequential injections of POM solution into a heptalysine solution, and apparent reaction heats (bottom) obtained from the integration of the calorimetric traces. POM/heptalysine concentrations in µM: a, 200/8 and b, 150/10. Error data is 5% for the n values and ± 0.5 kcal mol‒1 for ΔH and TΔS (duplicate […]
(§6) Table S6. Binding constants (Ka in M‒1) and thermodinamic data (in kcal mol‒1) measured for the complex formation between the stable and active POMs and oligoarginines in 10 mM Tris, pH 7.4. a) […]
(§7) a) Error data is 5% for the n values and ± 0.5 kcal mol‒1 for ΔH and TΔS (duplicate measurements).

Another series has as its system protamine. Description: ITC, POM into protamine. Conditions: 10 mM Tris; for T∆S, protamine / ∆H, protamine: pH 7.4; for n, protamine: pH 7.4, duplicates. The protocol:
as §1, §2, §3, §4, §5, §6, §7
For orientation: In ITC the heat of successive injections is recorded.

A further series concerns heptalysine. Description: ITC, POM into heptalysine. Conditions: 10 mM Tris; for n, heptalysine: pH 7.4, duplicates. The protocol: as §1, §5, §6
a) Error data is 5% for the n values and ± 0.5 kcal mol‒1 for ΔH and TΔS (duplicate measurements). […]

The test system of a further series is polyarginine. Description: ITC, POM into polyarginine. The following applies: 10 mM Tris; for T∆S, polyarginine / ∆H, polyarginine: pH 7.4; for n, polyarginine: pH 7.4, duplicates. Here is the method:
as §1, §2, §3, §4, §5, §6, §7

On to “K4[α‐P^VV^VW^VI 11O40]·4H2O [[PVW11]^4‒]”, for which, in the series on heptaarginine (listed as [PVW11]4‒), the “n (ITC stoichiometry), heptaarginine” value is 0.90. In addition, the “n (ITC stoichiometry), heptaarginine” value with heptaarginine (listed as [PVW11]^4−) is listed as 0.9. Further, in the series with heptaarginine, the “T∆S, heptaarginine” value was −12.8 kcal mol‒1 and the “∆H, heptaarginine” value is reported as −23.4 kcal mol‒1. In the series with protamine, the “T∆S, protamine” value is recorded as −11.3 kcal mol‒1; the “∆H, protamine” value was −23.8 kcal mol‒1; the “n, protamine” value turned out to be 3.1. Further, in the series on heptalysine (pH 7.4), the “T∆S, heptalysine” value is listed as −5.2 kcal mol‒1 and the “∆H, heptalysine” value is listed as −15.4 kcal mol‒1. Moreover, in the series with heptalysine, the “n, heptalysine” value was 2.0. For the same substance, in the series on polyarginine, the “T∆S, polyarginine” value was −12.5 kcal mol‒1; the “∆H, polyarginine” value is listed as −22.8 kcal mol‒1; the “n, polyarginine” value is given as 6.7.

As to “K4[α‐Si^IVMo^VIW^VI 11O40]·24H2O [[SiMoW11]^4‒]”, in the series with heptaarginine, the “n (ITC stoichiometry), heptaarginine” value came out at 1.1; the “T∆S, heptaarginine” value is −14.4 kcal mol‒1; the “∆H, heptaarginine” value is given as −23.7 kcal mol‒1. Moreover, in the series with protamine, the “T∆S, protamine” value was −16.9 kcal mol‒1; the “∆H, protamine” value was −26.8 kcal mol‒1; the “n, protamine” value was determined as 3.2. The “∆H, heptalysine” value in the series on heptalysine (pH 7.4) is on record as −16.8 kcal mol‒1. Besides, the “n, heptalysine” value with heptalysine is 1.9. Also, in the series with polyarginine, the “T∆S, polyarginine” value is given as −16.7 kcal mol‒1; the “∆H, polyarginine” value was −26.5 kcal mol‒1; the “n, polyarginine” value is on record as 6.1.
